This note sets out measurements from US20080227735.

Chains of the proteins cited; added tags and fusions are not shown. Residues count along the entry.
UniProt P07949, 29-1114 C634Y: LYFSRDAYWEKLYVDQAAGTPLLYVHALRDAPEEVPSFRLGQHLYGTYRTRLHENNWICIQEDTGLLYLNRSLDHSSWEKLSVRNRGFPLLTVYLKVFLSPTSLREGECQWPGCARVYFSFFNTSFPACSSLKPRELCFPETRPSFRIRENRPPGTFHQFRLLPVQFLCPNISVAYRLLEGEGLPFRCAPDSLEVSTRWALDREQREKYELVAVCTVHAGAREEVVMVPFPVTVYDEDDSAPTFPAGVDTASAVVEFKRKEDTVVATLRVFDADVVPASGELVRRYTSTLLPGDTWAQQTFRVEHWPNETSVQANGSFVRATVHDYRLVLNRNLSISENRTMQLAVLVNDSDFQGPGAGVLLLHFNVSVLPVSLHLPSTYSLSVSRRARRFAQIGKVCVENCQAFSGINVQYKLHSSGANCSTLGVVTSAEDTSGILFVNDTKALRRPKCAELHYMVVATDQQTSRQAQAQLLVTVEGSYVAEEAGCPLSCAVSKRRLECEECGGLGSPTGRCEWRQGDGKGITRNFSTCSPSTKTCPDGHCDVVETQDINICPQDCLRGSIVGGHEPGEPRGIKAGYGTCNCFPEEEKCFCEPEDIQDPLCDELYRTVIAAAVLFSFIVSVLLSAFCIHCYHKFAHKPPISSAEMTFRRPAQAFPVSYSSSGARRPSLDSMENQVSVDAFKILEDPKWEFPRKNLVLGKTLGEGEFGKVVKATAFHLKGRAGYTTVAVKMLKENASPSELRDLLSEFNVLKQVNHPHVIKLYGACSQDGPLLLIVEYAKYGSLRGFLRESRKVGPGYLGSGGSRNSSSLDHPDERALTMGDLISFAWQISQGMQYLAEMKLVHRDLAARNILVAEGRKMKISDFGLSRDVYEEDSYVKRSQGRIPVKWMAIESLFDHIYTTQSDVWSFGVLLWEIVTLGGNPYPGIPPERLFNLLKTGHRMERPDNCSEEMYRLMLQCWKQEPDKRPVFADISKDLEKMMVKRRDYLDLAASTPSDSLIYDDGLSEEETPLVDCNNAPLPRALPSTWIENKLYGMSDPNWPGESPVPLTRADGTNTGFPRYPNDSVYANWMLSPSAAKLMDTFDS
UniProt P07949, 29-1114 M918T: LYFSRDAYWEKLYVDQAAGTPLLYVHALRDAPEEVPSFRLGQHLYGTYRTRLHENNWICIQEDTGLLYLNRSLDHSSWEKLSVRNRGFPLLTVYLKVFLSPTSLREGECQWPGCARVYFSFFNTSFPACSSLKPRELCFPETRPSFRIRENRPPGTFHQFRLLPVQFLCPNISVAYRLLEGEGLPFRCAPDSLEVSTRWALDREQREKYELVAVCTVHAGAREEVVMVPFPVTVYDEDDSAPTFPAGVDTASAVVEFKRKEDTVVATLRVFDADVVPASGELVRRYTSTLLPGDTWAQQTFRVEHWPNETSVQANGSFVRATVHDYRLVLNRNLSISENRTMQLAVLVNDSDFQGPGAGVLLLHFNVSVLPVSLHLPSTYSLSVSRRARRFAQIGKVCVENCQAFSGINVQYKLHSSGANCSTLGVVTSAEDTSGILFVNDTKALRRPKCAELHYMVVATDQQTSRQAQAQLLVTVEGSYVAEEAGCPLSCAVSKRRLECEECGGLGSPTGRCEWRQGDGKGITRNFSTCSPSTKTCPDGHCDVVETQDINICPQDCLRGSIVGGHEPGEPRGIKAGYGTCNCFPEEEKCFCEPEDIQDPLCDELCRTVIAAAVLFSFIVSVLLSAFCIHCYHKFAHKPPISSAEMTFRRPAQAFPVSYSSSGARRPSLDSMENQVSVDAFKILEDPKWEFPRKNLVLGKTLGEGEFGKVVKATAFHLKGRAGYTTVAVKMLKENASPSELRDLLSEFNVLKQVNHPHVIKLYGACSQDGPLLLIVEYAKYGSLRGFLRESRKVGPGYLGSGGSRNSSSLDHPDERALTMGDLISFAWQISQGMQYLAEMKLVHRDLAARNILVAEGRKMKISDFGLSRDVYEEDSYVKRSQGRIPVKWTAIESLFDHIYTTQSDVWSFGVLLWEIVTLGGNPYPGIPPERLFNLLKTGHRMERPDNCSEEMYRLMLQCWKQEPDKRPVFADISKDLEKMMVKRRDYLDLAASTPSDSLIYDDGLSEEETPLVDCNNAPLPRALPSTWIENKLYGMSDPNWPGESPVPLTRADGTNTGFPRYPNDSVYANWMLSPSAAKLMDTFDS
UniProt P07949, 29-1114: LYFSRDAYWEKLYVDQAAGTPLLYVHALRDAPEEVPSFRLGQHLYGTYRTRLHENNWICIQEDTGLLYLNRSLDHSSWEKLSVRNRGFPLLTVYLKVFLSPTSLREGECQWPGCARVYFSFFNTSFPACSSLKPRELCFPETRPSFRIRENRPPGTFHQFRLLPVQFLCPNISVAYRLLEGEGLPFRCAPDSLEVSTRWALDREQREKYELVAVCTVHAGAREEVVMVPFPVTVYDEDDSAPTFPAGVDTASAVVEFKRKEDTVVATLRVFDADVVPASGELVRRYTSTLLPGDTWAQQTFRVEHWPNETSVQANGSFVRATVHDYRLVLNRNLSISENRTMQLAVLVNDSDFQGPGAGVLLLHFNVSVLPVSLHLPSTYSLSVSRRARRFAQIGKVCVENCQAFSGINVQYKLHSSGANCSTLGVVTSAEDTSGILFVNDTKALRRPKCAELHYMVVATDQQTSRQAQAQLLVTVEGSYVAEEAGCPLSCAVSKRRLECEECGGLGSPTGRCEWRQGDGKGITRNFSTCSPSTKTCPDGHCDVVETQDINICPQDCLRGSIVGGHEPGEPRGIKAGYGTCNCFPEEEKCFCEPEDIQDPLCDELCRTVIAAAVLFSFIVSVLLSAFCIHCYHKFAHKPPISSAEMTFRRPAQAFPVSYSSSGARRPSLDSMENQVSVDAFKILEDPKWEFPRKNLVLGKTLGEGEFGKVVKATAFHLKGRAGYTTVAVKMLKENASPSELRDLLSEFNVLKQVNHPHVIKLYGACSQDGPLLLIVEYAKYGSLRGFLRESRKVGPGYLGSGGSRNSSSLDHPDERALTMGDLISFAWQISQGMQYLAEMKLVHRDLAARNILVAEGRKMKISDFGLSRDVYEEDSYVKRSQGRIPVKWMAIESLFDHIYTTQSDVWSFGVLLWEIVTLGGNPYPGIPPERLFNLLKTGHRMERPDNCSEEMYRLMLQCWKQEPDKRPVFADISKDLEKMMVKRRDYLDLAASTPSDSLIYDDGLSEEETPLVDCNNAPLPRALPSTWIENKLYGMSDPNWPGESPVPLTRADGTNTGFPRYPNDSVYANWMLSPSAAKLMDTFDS
UniProt P35739, 33-799: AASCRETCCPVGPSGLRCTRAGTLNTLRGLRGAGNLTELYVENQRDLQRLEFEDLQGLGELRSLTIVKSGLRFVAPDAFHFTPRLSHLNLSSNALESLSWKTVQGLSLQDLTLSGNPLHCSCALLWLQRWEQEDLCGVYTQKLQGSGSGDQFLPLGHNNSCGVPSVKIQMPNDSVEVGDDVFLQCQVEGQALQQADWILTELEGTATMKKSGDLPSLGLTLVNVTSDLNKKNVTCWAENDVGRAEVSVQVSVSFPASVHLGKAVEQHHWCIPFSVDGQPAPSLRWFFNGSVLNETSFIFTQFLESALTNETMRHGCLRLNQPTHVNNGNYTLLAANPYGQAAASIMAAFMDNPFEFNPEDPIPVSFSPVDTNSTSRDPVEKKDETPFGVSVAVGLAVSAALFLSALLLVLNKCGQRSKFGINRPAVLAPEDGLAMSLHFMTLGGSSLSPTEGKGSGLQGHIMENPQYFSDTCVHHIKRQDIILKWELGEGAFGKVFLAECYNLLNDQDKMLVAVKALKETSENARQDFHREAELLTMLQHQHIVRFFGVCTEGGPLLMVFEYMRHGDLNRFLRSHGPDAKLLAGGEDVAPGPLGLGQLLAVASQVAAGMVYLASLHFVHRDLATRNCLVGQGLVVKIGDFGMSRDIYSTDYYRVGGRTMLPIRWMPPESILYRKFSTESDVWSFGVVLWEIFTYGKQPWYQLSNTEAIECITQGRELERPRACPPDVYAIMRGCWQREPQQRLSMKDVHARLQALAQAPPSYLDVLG

For part of these data: Where cells or extracts were used, other partners may take part. For part of these data: Negatives hold for the conditions tested. For part of these data: The exact form of at least one protein or probe is not confirmed.

Series [1] addresses Ret receptor tyrosine kinase C634Y (RetC634Y) on PC12 MEN 2A cells (Homo sapiens) (UniProt P07949). The series is described as follows: binding assay. The following applies: 2'-F pyrimidines (all C and U), protein on the cell surface.
In series [2] the target is Ret receptor tyrosine kinase M918T (RetM918T) on PC12 MEN 2B cells (Homo sapiens) (UniProt P07949). The series is described as follows: binding assay. The following applies: 2'-F pyrimidines (all C and U); D4 binds PC12 MEN 2B cells; protein on the cell surface; protein details: stably transfected in rat PC12 cells, monomeric; label: 5'-32P in binding assays.
The target of series [3] is TrkA receptor tyrosine kinase on PC12/wt cells (UniProt P35739). The series is described as follows: activity in cells. The following applies: 2'-F pyrimidines (all C and U); 200 nM D4; NGF-induced Erk phosphorylation unchanged; protein on the cell surface.
Series [4] concerns the target Ret receptor tyrosine kinase wild-type on PC12/wt cells (Homo sapiens) (UniProt P07949). The series is described as follows: activity in cells. The following applies: 2'-F pyrimidines (all C and U); 200 nM D4 inhibits GDNF/GFRa1-induced Ret and Erk phosphorylation; protein on the cell surface; protein details: stably transfected in rat PC12 cells.
[5] abbreviates: 100 nM on PC12 MEN 2A cells, label: 5'-32P.

Take “CGCGGGAAUAGUAUGGAAGGAUACGUAUACCGUG [D4 lacking R4 and R5 tails]”: the binding result in series [1] (PC12 MEN 2A cells, no significant difference in binding vs D4, less active in inhibition than full D4, variant of D4) was “binds”.
For “GGGAGACAAGAAUAAACGCUCAAGGCCAUAGCGCACCACCAAGAGCAAAUCCCUAAGCGCGACUCGAGUGAGCAACGACAGGAGGCUCACAACAGGA [D14]”, the binding result in series [1] (100 nM on PC12 MEN 2A cells, not significantly above background, label: 5'-32P) is recorded as “no binding”.
Turning to “GGGAGACAAGAAUAAACGCUCAACCGACCUGUACAGCAGUUAGUUACACGUUUGAAACAACCGGCGUUCGAGCAACGACAGGAGGCUCACAACAGGA [D60]”, the binding result in series [1] (setting [5]) is “no binding”.
Same read-out and setting: then “GGGAGACAAGAAUAAACGCUCAAGACCCGUAUGAAGGUGGCGCAGGACACGACCGUCUGCAAUGAGCGAGCAACGACAGGAGGCUCACAACAGGA [D42]”, with “no binding”.
On the same count and under the same terms, as for “GGGAGACAAGAAUAAACGCUCAACCGCGGUCUGUGGGACCCUUCAGGAUGAAGCGGCAACCCAUGCGGGCCAACGACAGGAGGCUCACAACAGGA [D87]”, the entry is “no binding”; as for “GGGAGACAAGAAUAAACGCUCAAGGGCCAAUCGAAGCCGGUAAUUCCCAAACUAACGUGCAAACUGCACCCGCAACGACAGGAGGCUCACAACAGGA [D20]”, “no binding”.
In the case of “GGGAGACAAGAAUAAACGCUCAACAAAGCGUGUAUUCUCGUGAGCCGACCAUCGUUGCGAACAUCCCCGGAACGAACGACAGGAGGCUCACAACAGGA [D33]”, the binding result in series [1] (setting [5]) is “no binding”.
Regarding “GGGAGACAAGAAUAAACGCUCAAGCGCGGGAAUAGUAUGGAAGGAUACGUAUACCGUGCAAUCCAGGGCAACGAACGACAGGAGGCUCACAACAGGA [D4]”, the binding result in series [2] is reported as “binds”. In addition, the figures for the “functional effect of the aptamer” value in series [3] and in series [4] were “not active” and “active”, respectively.
With “GGGAGACAAGAAUAAACGCUCAAGGCUUACACGGAGAAACAAGAGAGCGGCCCAAACUUGAUUGACAGUGGCCAACGACAGGAGGCUCACAACAGGA [D76]”, the binding result in series [1] (setting [5]) is on record as “no binding”.
With “GGGAGACAAGAAUAAACGCUCAACCCCGCUUUUUGACGUGAUCGAACGCGUAUCAGUAACGUCAGCAGUCGAGCAACGACAGGAGGCUCACAACAGGA [D32]”, the binding result in series [1] (setting [5]) is “no binding”.
